Here are results for 2 substances from publication PMC7348086.

Chains of the proteins cited; added tags and fusions are not shown.
UniProt P35372: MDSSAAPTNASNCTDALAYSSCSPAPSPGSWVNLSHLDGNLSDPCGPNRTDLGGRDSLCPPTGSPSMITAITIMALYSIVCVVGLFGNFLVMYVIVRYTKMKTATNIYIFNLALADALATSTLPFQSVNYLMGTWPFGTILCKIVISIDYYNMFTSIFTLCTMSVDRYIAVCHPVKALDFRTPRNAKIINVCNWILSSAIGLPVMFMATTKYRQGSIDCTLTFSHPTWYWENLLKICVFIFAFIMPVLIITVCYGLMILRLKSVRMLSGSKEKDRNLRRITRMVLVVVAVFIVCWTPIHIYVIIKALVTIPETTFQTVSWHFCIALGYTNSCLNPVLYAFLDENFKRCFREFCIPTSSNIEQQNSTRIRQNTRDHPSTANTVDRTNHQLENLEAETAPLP
UniProt P25098: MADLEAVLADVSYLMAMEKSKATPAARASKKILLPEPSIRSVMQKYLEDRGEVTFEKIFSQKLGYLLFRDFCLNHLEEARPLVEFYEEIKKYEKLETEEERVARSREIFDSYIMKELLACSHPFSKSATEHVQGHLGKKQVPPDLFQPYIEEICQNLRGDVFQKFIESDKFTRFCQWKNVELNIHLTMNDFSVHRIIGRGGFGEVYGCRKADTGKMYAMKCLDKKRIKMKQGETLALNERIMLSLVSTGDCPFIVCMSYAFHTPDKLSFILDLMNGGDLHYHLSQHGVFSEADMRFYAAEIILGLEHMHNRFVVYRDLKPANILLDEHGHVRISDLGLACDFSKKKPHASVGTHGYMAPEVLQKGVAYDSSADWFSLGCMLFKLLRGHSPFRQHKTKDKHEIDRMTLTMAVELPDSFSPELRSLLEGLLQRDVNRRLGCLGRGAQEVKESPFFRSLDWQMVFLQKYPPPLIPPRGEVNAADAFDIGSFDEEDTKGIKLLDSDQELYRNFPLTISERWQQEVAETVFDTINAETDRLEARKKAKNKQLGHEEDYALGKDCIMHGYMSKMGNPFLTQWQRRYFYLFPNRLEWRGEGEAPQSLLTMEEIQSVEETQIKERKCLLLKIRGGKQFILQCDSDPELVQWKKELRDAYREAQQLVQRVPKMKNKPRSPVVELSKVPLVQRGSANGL
UniProt P32121: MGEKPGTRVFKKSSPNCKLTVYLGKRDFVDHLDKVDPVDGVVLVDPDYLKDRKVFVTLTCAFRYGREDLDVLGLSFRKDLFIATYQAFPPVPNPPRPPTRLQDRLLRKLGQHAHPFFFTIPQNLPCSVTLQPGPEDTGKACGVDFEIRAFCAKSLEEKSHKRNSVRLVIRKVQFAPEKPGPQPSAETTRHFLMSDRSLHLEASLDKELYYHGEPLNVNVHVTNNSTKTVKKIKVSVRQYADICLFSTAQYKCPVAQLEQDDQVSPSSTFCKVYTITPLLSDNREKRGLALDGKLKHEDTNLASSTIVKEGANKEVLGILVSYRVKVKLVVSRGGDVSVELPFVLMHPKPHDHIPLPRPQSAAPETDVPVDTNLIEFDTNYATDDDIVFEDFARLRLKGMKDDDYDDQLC

The target of assay [1] is μ receptor, C‐terminally sYFP2‐labelled (MOP‐sYFP2) (UniProt P35372). Description: FRET or BRET; single HEK293T cells co‐expressing MOP‐sYFP2, GRK2‐mTur2 and unlabelled Gαi, Gß1, Gγ2; whole‐cell voltage clamp, −90 mV stepped to +30 mV; 10 μM DAMGO; room temperature. In general terms: In BRET a luciferase serves as donor, and the signal depends on an acceptor being close.
The target is the same in assay [2]. Description: FRET or BRET; single HEK293T cells co‐expressing MOP‐sYFP2, Arr3‐mTur2 and wild‐type GRK2; whole‐cell voltage clamp, −90 mV stepped to +30 mV; 30 μM Met‐enkephalin (saturating); room temperature.

No constants are given. Whether binding was seen depends on the method and setting. Binding seen in cells or lysates may run through a third protein. Some binding calls cover weakened binding; strength is not graded here.

Turning to “GRK2‐mTur2 (mTur2‐labelled GPCR kinase 2) (from UniProt P25098 1-689) (enzyme)”, the binding result in assay [1] is “binds”.

As for “arrestin3‐mTur2 (mTur2‐labelled arrestin3) (from UniProt P32121 1-409)”, in assay [2], the binding result was “binds”.
